This assay addresses T1, Cyclin-dependent kinase 4 (rat (endogenous in primary ADSCs)) (UniProt P35426).
T1 sequence: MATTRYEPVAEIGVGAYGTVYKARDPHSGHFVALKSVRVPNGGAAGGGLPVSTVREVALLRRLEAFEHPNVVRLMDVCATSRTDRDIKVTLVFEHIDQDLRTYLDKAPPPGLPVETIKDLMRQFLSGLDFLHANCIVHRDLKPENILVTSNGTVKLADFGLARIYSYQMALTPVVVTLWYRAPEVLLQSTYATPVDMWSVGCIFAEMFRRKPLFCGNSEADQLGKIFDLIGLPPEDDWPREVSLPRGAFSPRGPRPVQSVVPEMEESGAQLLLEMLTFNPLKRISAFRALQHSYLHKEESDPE
Nature of the assay: affinity purification with mass spectrometry; samples precipitated with the anti-CDK4 antibody, digested with trypsin, nano-LC and Q-Exactive MS, Proteome Discoverer 2.1; screen for ubiquitination regulators (Venn diagram).

Chains of the proteins cited; added tags and fusions are not shown.
UniProt F1LP64: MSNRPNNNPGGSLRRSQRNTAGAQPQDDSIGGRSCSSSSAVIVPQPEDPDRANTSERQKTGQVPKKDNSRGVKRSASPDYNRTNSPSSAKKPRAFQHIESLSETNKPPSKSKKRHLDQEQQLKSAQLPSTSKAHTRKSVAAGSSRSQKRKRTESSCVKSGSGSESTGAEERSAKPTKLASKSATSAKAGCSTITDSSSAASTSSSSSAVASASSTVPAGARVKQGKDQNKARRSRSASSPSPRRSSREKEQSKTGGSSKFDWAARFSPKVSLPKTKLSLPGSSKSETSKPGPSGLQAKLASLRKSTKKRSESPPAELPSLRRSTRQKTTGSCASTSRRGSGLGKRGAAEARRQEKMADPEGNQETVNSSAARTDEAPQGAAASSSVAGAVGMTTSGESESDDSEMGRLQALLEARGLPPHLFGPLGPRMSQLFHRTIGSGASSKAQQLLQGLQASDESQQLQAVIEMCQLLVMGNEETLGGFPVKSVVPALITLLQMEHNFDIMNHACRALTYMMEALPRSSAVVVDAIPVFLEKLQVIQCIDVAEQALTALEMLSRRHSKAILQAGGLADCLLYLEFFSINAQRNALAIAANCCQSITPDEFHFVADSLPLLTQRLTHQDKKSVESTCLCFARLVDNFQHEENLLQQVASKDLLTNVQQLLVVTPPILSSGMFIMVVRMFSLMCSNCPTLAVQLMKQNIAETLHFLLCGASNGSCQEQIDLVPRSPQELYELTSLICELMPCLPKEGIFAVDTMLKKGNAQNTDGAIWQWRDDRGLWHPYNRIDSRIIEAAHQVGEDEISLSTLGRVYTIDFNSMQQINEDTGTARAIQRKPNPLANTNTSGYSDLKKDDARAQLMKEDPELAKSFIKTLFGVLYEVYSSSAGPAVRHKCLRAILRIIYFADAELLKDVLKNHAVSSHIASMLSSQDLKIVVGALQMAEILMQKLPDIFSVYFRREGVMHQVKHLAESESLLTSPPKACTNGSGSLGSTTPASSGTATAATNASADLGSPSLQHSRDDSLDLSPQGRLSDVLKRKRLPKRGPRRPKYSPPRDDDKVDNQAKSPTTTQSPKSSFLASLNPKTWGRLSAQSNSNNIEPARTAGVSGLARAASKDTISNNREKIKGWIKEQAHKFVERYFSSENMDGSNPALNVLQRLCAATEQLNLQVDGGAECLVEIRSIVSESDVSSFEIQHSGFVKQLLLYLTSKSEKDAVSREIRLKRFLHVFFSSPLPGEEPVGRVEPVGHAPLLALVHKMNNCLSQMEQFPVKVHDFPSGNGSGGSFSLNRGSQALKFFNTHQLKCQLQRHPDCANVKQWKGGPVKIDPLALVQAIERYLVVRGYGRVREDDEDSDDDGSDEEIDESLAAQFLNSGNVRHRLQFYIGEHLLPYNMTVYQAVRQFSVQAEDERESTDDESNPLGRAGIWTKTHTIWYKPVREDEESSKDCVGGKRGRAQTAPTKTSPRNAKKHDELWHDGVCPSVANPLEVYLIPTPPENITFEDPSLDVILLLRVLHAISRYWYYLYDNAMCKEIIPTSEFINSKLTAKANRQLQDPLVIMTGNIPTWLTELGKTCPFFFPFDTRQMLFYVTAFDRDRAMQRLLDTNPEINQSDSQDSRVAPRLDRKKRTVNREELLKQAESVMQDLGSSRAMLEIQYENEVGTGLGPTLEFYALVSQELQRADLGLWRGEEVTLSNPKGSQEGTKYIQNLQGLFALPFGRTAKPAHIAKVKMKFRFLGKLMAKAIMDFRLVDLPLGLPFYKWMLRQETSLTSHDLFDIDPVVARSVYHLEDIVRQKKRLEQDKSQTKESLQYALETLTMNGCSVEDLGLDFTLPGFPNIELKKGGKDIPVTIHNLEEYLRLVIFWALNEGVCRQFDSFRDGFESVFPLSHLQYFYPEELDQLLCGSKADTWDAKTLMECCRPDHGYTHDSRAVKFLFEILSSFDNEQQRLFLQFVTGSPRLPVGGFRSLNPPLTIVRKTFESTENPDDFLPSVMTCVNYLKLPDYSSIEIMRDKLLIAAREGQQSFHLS

These are yes or no findings as the source states them, for the method shown. Binding seen in cells or lysates may run through a third protein. These calls come from enrichment with a bait or labelling near it, and not all partners need be listed.

With “E3 ubiquitin ligase TRIP12 (from UniProt F1LP64 1-2025) (enzyme)”, the binding result is “binds”.

Turning to “deubiquitinase OTUD4 (rat (endogenous in primary ADSCs)) (enzyme)”, the binding entry is reported as “binds”.

The values are drawn from PMC12743421.
